Source: PMC6399928
No constants are given. Whether binding was seen depends on the method and setting. Binding seen in cells or lysates may run through a third protein. These calls come from enrichment with a bait or labelling near it, and not all partners need be listed.

Sequences of proteins named here, by UniProt entry; tags and fusion partners are left off. Residues count along the entry.
UniProt P16070, residues 21-742: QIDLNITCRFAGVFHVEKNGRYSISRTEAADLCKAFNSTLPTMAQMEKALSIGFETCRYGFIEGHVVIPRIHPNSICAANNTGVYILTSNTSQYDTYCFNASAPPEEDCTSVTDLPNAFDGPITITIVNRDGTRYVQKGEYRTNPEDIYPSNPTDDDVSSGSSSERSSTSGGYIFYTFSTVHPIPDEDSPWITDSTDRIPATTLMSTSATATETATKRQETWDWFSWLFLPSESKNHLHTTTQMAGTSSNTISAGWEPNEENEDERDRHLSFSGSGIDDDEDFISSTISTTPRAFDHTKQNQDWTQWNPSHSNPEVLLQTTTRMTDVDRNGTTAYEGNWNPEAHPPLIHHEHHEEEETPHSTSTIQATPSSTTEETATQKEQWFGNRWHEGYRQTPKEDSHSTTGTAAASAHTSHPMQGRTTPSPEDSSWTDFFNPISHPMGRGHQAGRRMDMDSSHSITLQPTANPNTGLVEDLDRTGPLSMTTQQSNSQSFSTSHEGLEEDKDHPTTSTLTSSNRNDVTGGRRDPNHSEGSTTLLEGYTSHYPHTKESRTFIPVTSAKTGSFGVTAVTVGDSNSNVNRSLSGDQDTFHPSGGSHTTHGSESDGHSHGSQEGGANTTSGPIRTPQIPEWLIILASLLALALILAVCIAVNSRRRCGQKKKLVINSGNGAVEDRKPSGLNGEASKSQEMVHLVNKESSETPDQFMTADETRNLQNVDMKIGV
UniProt P06396, residues 28-782: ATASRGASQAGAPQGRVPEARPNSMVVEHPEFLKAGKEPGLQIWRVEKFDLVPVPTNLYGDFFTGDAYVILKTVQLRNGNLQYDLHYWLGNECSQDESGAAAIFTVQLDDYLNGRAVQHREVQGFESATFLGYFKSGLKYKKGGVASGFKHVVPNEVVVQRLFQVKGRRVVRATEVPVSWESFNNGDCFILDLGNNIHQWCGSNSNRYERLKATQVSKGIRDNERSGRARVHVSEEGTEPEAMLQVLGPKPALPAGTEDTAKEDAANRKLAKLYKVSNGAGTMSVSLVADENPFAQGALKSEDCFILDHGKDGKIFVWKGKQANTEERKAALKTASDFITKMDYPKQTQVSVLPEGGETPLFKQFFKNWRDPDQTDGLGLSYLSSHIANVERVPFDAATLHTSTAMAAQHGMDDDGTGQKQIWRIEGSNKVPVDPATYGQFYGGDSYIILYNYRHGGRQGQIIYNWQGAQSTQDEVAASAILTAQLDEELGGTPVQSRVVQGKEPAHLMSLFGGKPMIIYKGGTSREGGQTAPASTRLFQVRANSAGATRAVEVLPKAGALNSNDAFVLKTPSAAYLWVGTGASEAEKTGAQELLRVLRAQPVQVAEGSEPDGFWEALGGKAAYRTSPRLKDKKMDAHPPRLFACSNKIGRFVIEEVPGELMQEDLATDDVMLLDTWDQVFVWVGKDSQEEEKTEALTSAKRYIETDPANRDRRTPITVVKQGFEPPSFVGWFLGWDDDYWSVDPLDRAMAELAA
UniProt Q14247: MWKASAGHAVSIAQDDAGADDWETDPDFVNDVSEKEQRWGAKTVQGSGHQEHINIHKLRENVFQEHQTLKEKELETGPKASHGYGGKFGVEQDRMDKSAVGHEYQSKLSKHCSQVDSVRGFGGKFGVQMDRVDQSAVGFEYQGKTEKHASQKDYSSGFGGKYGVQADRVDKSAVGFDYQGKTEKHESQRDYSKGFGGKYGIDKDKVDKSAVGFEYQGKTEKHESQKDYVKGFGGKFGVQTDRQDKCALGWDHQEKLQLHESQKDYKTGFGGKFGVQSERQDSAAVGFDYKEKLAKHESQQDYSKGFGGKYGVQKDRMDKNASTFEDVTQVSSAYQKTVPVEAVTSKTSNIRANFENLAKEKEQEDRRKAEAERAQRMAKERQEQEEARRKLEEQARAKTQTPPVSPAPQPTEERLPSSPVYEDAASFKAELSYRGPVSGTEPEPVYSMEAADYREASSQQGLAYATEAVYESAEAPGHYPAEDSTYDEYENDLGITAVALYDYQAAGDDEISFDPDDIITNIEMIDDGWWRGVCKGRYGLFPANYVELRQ
UniProt P21333: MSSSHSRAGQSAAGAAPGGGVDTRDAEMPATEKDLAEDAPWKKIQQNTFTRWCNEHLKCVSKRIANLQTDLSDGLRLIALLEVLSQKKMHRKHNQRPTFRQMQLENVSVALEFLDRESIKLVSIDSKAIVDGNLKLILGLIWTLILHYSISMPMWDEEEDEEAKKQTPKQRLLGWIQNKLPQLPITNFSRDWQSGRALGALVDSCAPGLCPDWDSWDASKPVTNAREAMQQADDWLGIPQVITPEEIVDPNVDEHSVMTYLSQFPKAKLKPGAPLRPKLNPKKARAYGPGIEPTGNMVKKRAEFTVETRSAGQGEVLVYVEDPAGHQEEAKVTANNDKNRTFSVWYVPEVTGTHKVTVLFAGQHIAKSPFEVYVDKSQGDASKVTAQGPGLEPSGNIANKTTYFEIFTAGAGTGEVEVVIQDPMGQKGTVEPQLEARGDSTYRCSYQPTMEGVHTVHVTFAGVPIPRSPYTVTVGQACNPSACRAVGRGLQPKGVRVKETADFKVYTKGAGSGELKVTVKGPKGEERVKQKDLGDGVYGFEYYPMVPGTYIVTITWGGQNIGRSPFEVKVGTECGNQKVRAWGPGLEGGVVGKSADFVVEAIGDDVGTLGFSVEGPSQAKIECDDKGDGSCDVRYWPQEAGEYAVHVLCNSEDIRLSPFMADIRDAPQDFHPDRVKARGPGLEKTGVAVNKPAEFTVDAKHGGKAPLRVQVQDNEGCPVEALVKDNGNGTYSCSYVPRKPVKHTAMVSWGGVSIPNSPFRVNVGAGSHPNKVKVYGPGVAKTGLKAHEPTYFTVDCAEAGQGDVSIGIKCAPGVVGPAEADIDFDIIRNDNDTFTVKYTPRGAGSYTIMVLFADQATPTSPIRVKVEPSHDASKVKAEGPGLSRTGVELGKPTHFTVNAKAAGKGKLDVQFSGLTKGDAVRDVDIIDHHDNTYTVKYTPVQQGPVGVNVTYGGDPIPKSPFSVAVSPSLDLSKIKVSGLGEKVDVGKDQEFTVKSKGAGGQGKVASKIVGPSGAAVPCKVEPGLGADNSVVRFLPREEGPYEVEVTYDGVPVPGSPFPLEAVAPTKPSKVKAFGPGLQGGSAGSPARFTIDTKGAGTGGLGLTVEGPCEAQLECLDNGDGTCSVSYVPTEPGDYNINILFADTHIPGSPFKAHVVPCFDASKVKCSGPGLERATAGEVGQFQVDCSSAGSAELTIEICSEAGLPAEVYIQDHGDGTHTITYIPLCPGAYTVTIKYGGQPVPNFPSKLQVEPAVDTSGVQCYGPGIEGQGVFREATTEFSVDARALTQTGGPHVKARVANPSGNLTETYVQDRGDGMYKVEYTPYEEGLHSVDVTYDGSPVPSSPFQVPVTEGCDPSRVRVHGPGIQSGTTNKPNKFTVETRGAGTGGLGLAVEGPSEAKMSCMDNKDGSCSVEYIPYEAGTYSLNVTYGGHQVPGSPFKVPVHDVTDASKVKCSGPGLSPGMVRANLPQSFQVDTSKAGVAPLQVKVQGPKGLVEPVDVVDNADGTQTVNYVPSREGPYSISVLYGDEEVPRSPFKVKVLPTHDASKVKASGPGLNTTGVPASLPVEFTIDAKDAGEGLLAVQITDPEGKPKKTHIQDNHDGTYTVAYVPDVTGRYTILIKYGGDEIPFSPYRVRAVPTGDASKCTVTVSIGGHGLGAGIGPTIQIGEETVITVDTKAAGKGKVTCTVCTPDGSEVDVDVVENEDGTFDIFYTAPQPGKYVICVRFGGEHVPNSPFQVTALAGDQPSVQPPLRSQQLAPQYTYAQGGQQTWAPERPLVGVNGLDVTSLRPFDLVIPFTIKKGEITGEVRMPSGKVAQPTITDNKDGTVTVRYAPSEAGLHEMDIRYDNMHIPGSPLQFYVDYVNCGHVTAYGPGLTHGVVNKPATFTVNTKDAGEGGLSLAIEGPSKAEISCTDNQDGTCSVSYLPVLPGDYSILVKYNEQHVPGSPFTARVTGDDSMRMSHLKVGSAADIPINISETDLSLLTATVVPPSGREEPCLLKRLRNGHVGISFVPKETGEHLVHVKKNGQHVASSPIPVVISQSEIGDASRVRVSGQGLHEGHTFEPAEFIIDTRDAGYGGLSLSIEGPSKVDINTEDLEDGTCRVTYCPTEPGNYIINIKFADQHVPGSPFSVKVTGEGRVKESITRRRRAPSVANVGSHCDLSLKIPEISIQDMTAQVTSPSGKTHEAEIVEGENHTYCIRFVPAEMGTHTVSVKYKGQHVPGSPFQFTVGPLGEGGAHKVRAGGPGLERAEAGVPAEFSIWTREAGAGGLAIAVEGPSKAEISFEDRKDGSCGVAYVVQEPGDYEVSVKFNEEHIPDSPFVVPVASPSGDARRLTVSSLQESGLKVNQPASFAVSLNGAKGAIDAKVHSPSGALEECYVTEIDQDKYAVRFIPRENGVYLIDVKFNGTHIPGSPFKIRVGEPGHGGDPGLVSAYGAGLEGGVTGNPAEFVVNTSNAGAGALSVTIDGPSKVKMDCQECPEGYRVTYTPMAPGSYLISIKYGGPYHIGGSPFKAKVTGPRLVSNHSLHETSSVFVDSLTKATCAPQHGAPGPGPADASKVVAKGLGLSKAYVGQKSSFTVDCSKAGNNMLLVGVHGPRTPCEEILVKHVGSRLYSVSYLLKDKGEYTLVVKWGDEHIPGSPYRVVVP

What follows are substances tested against T1, RNF128 (human) (UniProt Q8TEB7) (assay: affinity purification with mass spectrometry; Co-IP from lysates of M14-RNF128, A2058-RNF128 and 293T-RNF128 cells with a primary antibody (not named) and protein A/G-Sepharose; immunoprecipitates resolved on 10% gradient gels, Coomassie-stained bands analysed by MS, SEQUEST against the Human International Protein Index database; proteins found in all three cell lines).
T1 sequence: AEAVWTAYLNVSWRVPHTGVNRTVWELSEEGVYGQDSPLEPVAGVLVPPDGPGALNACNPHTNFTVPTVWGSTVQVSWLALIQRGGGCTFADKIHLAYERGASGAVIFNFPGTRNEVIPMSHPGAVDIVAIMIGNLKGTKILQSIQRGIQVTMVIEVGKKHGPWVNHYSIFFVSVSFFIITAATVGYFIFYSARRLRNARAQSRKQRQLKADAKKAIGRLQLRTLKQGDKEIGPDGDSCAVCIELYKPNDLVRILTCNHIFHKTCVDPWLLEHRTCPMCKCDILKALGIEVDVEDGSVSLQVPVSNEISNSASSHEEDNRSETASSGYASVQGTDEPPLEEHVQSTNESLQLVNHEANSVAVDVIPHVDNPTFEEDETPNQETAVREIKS

binding	Substance
binds	CD44 (from UniProt P16070 21-742)
binds	Gelsolin (from UniProt P06396 28-782)
binds	cortactin (CTTN) (from UniProt Q14247 1-550)
binds	Filamin-A (from UniProt P21333 1-2647)
